Test results reported in PMC9795042.
These are yes or no findings as the source states them, for the method shown. Binding seen in cells or lysates may run through a third protein. Some binding calls cover weakened binding; strength is not graded here. Tags and fused reporters may be left off the sequences shown.

T1: V5-his6-tagged PGAM2 (phosphoglycerate mutase 2), wild type (mouse), O70250
T1 chain: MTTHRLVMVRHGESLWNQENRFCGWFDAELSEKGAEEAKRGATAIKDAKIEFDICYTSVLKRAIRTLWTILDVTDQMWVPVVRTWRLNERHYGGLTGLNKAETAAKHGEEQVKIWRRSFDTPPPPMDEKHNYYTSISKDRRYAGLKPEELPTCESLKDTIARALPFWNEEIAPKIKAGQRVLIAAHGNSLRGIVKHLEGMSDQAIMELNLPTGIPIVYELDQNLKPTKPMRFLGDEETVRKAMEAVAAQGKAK

T2: V5-his6-tagged PGAM2 K176R mutant (mouse) (UniProt O70250)
T2 sequence: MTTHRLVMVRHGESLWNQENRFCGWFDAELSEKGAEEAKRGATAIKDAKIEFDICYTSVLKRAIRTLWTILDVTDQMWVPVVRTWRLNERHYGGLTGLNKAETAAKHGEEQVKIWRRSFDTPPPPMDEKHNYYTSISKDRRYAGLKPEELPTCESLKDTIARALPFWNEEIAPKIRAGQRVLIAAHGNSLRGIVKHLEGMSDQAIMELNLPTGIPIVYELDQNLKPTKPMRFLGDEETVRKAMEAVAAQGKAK


Assays:
[1] = target: T1, V5-his6-tagged PGAM2 (phosphoglycerate …); test: co-IP; C2C12 cells co-transfected with HA-PGAM2-wt and PGAM2-wt-V5-his or PGAM2-K176R-V5-his; lysates precipitated with anti-V5 antibody (V5 antibody-conjugated agarose beads) or IgG control; blots with anti-V5-HRP and anti-HA-HRP; conditions: remark: other sources report otherwise
[2] = target: T2, V5-his6-tagged PGAM2 K176R mutant (mouse); test: as above

| binding [1] | binding [2] | Binder |
| --- | --- | --- |
| binds |  | HA-tagged PGAM2 (phosphoglycerate mutase 2), wild type, O70250 1-253 (enzyme) MTTHRLVMVRHGESLWNQENRFCGWFDAELSEKGAEEAKRGATAIKDAKIEFDICYTSVLKRAIRTLWTILDVTDQMWVPVVRTWRLNERHYGGLTGLNKAETAAKHGEEQVKIWRRSFDTPPPPMDEKHNYYTSISKDRRYAGLKPEELPTCESLKDTIARALPFWNEEIAPKIKAGQRVLIAAHGNSLRGIVKHLEGMSDQAIMELNLPTGIPIVYELDQNLKPTKPMRFLGDEETVRKAMEAVAAQGKAK |
|  | binds | HA-tagged PGAM2 (phosphoglycerate mutase 2), wild type (enzyme, UniProt O70250 1-253) MTTHRLVMVRHGESLWNQENRFCGWFDAELSEKGAEEAKRGATAIKDAKIEFDICYTSVLKRAIRTLWTILDVTDQMWVPVVRTWRLNERHYGGLTGLNKAETAAKHGEEQVKIWRRSFDTPPPPMDEKHNYYTSISKDRRYAGLKPEELPTCESLKDTIARALPFWNEEIAPKIKAGQRVLIAAHGNSLRGIVKHLEGMSDQAIMELNLPTGIPIVYELDQNLKPTKPMRFLGDEETVRKAMEAVAAQGKAK |
